The numbers were not newly measured in paper PMC10674299, “Discovery of Guanfacine as a Novel TAAR1 Agonist: A Combination Strategy through Molecular Modeling Studies and Biological Assays” (Pharmaceuticals, 2023), which cites them from elsewhere.

Structures are written as SMILES. A number of entries come with more than one value. The list is limited to them. There may be further records. Values given together do not match, cause unknown; they may come from other doses, times, organisms or constructs than stated.

The data set addresses α2-ADR. The settings on record: read-out: α2-ADR Ki; cited from earlier work.

With `CC(C)N(Cc1c[nH]cn1)c1ccccc1`, the Ki is 521 nM and 128 nM to 521 nM.

The Ki is the equilibrium dissociation constant of an inhibitor or competing ligand from its target.
